Assay [1] concerns the target angiotensin II type 1 receptor (AT1R) with FLAG peptide fused to its N-terminus (human) (UniProt P30556). Kind of assay: on-yeast affinity assay.
Assay [2] has the same target. Kind of assay: radioligand competition binding assay.

No constants are given. Whether binding was seen depends on the method and setting. Some binding calls cover weakened binding; strength is not graded here.

B1: AT110 Y113H (VHH)
VHH: QVQLQESGGGLVQAGGSLRLSCAASGNIFDADIMGWYRQAPGKERELVASITDGGSTNYADSVKGRFTISRDNAKNTVYLQMNSLKPEDTAVYYCAAIAYPDIPTYFDYDSDHFYWGQGTQVTVSS
Turning to B1, the binding entry in assay [1] and in assay [2] was “binds” throughout.

Values taken from patent US20240182911A1.
